Laboratory results as given in the supplement of paper PMC11732987, “Enantioselective OTUD7B fragment discovery through chemoproteomics screening and high-throughput optimisation” (Communications Chemistry, 2025).
The list shows a part of the results. The data scatter; read single values as rough.

Sequences of proteins named here, by UniProt entry; tags and fusion partners are left off. A change or cut given only in a name is not applied to a line headed by its entry. Residues count along the entry.
UniProt Q9H2U2: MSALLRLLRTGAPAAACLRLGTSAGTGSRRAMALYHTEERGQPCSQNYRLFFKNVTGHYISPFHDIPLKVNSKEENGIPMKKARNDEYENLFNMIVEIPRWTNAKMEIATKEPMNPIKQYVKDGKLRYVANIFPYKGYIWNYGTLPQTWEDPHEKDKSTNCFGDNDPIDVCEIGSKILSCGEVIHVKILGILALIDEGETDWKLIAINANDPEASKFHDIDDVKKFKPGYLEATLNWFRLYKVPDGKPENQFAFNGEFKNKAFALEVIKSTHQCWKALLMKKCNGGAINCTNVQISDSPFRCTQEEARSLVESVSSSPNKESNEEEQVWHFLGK
UniProt O94806, 13-33: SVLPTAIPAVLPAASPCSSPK
UniProt O43663: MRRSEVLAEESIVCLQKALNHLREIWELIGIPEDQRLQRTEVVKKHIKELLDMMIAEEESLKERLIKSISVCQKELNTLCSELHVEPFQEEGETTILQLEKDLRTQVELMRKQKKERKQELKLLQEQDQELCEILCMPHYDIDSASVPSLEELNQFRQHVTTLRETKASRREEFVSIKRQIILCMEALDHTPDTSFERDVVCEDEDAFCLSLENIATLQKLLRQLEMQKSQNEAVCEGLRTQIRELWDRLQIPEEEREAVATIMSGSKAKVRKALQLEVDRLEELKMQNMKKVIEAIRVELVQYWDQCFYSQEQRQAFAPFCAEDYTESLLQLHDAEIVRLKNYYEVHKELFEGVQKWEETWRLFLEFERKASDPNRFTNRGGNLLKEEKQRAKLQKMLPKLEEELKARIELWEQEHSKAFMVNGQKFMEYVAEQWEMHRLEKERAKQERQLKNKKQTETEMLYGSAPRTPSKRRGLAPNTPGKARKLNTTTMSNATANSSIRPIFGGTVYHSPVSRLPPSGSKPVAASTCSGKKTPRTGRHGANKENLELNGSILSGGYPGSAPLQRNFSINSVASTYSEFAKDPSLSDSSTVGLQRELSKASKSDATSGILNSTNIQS
UniProt O94906: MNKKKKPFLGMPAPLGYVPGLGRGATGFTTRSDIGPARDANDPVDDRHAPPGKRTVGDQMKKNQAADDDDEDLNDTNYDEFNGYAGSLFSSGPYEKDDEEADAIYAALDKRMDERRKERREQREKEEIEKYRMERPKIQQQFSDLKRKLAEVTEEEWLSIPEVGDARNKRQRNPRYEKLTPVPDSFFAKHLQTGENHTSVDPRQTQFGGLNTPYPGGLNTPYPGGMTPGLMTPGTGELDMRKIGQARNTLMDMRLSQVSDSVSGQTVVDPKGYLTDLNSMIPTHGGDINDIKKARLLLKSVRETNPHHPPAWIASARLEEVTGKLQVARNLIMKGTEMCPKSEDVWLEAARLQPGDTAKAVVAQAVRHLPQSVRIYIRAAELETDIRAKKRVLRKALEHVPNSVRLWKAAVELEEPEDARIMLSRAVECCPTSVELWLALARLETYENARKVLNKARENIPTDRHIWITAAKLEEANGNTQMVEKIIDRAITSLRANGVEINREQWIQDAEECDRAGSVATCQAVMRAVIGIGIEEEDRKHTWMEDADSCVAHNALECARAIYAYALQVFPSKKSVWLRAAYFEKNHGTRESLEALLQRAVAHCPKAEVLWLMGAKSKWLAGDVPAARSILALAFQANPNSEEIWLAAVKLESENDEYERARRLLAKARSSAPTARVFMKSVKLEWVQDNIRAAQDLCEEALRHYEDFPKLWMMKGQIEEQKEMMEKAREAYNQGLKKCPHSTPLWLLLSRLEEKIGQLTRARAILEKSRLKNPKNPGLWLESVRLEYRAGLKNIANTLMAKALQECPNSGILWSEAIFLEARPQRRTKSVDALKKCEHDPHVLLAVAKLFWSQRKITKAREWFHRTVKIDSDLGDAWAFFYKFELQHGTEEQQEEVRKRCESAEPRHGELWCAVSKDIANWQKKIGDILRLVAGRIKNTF
UniProt Q5VTL8: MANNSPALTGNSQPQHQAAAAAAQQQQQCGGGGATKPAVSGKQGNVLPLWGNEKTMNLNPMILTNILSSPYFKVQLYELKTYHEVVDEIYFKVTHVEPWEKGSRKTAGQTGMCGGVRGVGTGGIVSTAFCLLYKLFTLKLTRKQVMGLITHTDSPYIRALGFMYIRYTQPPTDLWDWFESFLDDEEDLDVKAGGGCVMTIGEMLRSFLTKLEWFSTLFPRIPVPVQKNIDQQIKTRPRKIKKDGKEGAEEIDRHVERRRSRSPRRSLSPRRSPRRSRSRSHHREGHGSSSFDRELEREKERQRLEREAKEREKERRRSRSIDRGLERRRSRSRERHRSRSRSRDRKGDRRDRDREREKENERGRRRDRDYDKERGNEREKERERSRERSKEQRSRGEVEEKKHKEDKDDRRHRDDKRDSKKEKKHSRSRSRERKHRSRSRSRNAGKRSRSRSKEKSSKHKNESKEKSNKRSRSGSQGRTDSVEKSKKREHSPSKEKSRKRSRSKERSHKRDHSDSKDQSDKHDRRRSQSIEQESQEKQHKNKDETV
UniProt P60510: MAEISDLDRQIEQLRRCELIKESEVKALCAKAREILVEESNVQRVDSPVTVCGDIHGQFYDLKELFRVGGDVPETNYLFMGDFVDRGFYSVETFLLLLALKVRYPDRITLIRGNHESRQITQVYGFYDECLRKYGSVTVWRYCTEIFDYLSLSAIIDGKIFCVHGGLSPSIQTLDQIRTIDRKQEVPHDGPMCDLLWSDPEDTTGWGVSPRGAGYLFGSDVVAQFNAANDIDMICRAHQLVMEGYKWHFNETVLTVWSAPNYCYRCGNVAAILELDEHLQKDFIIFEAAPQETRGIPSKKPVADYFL
UniProt Q9Y3C6: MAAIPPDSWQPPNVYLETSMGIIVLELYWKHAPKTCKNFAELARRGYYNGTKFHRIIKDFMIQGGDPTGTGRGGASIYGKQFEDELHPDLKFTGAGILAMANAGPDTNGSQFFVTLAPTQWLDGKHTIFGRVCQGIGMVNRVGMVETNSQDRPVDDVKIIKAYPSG
UniProt Q9NW08: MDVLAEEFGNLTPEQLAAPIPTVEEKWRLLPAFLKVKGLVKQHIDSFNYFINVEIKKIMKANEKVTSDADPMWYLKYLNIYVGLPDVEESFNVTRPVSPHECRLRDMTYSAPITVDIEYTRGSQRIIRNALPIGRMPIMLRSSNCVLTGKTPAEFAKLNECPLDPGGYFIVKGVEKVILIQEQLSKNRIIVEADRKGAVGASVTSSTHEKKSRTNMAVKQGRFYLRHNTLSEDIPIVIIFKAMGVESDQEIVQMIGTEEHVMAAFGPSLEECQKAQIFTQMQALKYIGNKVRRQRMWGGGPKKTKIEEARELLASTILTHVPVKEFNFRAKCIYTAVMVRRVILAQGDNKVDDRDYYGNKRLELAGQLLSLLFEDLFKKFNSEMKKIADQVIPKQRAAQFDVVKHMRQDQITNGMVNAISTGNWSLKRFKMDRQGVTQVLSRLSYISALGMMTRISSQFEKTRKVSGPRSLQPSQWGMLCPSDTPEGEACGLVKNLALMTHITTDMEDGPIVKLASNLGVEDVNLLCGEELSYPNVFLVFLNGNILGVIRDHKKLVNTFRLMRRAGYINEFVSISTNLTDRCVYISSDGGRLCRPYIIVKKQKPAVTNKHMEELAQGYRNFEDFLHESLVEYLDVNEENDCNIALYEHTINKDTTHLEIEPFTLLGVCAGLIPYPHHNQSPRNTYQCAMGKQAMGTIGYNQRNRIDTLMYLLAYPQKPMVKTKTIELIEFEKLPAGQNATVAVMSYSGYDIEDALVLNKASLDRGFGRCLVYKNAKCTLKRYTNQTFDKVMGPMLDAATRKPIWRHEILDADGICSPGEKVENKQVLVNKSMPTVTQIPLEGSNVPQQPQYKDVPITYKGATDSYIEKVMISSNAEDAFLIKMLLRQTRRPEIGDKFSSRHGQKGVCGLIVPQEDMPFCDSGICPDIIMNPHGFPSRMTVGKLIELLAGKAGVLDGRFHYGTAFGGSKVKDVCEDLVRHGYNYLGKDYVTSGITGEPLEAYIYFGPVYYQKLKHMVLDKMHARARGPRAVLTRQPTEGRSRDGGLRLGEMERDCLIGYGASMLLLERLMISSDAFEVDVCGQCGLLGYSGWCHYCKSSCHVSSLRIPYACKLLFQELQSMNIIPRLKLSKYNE
UniProt P05423: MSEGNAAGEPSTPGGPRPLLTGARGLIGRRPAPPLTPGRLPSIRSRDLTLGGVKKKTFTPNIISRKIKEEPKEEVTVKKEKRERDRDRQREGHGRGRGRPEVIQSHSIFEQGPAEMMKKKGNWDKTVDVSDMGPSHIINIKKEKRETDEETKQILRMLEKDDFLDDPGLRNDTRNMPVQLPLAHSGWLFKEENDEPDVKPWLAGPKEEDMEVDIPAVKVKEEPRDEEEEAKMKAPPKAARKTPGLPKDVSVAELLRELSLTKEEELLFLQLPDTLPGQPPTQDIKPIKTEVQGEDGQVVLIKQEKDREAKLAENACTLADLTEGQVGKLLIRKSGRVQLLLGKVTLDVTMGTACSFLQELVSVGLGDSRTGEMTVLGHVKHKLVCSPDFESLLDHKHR
UniProt Q04759, 536-555: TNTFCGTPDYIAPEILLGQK
UniProt P54646: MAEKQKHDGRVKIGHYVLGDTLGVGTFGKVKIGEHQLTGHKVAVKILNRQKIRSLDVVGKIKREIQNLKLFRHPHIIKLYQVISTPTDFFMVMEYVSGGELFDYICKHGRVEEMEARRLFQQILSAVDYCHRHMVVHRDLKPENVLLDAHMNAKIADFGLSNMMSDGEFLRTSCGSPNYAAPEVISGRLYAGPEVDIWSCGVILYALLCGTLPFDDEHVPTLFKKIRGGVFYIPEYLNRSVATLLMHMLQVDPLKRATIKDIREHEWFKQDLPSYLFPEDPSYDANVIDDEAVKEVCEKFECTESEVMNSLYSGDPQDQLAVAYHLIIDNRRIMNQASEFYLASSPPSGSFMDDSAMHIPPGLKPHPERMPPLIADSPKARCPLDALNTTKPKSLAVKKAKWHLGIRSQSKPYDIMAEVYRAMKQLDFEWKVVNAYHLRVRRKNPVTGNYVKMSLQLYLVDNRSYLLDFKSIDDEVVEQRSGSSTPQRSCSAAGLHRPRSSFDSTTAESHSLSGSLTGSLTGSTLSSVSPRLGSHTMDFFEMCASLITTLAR
UniProt O60678: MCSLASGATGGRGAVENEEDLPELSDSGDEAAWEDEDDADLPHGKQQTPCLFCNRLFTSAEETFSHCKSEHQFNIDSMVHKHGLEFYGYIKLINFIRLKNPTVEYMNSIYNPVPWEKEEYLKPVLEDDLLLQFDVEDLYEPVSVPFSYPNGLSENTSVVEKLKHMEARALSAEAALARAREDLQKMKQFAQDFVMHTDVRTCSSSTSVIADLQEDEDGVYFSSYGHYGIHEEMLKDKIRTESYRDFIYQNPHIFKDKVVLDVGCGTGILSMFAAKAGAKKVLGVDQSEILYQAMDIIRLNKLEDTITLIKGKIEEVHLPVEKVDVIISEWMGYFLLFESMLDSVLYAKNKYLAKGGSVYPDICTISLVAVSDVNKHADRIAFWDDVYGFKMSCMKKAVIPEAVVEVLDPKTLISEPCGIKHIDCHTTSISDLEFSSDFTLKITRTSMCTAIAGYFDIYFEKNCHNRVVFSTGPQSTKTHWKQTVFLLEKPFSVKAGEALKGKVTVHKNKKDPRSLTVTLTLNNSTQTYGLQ

Columns and labels:
[1] = compound: ClCC(=O)N[C@@H]1CCCc2ccccc12; assay: log2 mean competition ratio of IA-DTB cysteine labelling (DMSO/compound) (log2 ratio); higher = stronger cysteine engagement by compound; conditions: treatment time: 4 h, cell line lysate: HEK293T
Experimental: (§1)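 IA-DTB competitive cysteine chemoproteomics in HEK293T RIPA lysate. Lysates were treated with compound 29 or 30 at 50 or 200 µM for 4 h, then IA-DTB (500 µM, 1 h), trypsin-digested, NeutrAvidin-enriched and analysed by diaPASEF. Competition ratio = intensity DMSO / intensity compound (n=4 treated, n=64 DMSO); binding: mean log2 CR ≥ 1 and p ≤ 0.05 plus QC filters. Target is the cysteine site.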

[2] = compound: ClCC(=O)N[C@H]1CCCc2ccccc12; assay: as above; conditions: treatment time: 4 h, cell line lysate: HEK293T
Experimental: as §1

Target | log2 mean competition ratio ([1]; 50 µM) | log2 mean competition ratio ([1]; 200 µM) | log2 mean competition ratio ([2]; 50 µM) | log2 mean competition ratio ([2]; 200 µM)
PPIP5K2 C900 | -0.12 | -0.107 | -0.34 | -0.164
PPAN C180 (UniProt Q9NQ55) | 0.0954 | 0.817 | -0.054 | -0.246
PRKCG C502 (UniProt P05129) | -0.0411 | -0.0451 | 0.183 | 0.103
PPP2R5E C106 (UniProt Q16537) | -0.0396 | -0.178 | -0.197 | -0.263
PPP6R2 C511 (UniProt O75170) | -0.0532 | -0.3 | -0.245 | 0.0645
PRKD1 C726 (UniProt Q15139) | 0.692 | 0.32 | 0.0177 | 0.275
PPA2 C180 (UniProt Q9H2U2) | -0.0702 | -0.0364 | -0.234 | -0.0657
PRKD3 C29 (UniProt O94806) | -0.26 | -0.0228 | -0.226 | -0.0116
PRKCI C400 (UniProt P41743) | -0.0903 | -0.0519 | 0.252 | 0.131
PRC1 C72 (UniProt O43663) | -0.119 | -0.179 | 0.106 | -0.124
PRPF6 C698 (UniProt O94906) | -0.0131 | -0.219 | 0.00624 | -0.0766
PRPF38B C113 (UniProt Q5VTL8) | 0.0166 | 0.11 | -0.0404 | 0.131
PPP4C C266 (UniProt P60510) | 0.309 | -0.133 | -0.173 | -0.35
PPIL1 C133 (UniProt Q9Y3C6) | 0.453 | -0.081 | 0.202 | -0.00257
POLR3B C145 (UniProt Q9NW08) | 0.0329 | -0.201 | 0.206 | 0.101
PRDM16 C771 | 0.0982 | 0.127 | -0.394 | 0.424
POLR3D C316 (UniProt P05423) | -0.0259 | 0.183 | 0.384 | 0.141
PRKCQ C540 (UniProt Q04759) | -0.416 | -0.412 | -0.43 | -0.000368
PRKAA2 C382 (UniProt P54646) | 0.196 | 0.367 | -0.331 | 0.249
PRKDC C2248 (UniProt P78527) | 0.0164 | -0.327 | 0.0841 | -0.467
PPP2R2A C262 | -0.108 | -0.0626 | 0.1 | -0.0818
POP1 C745 (UniProt Q99575) | -0.134 | 0.0217 | 0.207 | 0.0626
PRMT3 C2 (UniProt O60678) | 0.0805 | -0.178 | 0.143 | 0.0212

An excerpt from above with just log2 mean competition ratio ([1]; 200 µM).
Target	log2 mean competition ratio ([1]; 200 µM)
POLR3D C316 (UniProt P05423)	0.183
PRKCQ C540 (UniProt Q04759)	-0.412
